Reference: PubChem BioAssay AID1224863 (Southern Research Institute, 2016)
This is one part of the list.

By UniProt entry, the sequences of proteins in these tests, tags left out. Chains listed by the source or under a name are the forms on record and can include a tag or linker.
UniProt P13569, with tags, fused parts or gaps F508del: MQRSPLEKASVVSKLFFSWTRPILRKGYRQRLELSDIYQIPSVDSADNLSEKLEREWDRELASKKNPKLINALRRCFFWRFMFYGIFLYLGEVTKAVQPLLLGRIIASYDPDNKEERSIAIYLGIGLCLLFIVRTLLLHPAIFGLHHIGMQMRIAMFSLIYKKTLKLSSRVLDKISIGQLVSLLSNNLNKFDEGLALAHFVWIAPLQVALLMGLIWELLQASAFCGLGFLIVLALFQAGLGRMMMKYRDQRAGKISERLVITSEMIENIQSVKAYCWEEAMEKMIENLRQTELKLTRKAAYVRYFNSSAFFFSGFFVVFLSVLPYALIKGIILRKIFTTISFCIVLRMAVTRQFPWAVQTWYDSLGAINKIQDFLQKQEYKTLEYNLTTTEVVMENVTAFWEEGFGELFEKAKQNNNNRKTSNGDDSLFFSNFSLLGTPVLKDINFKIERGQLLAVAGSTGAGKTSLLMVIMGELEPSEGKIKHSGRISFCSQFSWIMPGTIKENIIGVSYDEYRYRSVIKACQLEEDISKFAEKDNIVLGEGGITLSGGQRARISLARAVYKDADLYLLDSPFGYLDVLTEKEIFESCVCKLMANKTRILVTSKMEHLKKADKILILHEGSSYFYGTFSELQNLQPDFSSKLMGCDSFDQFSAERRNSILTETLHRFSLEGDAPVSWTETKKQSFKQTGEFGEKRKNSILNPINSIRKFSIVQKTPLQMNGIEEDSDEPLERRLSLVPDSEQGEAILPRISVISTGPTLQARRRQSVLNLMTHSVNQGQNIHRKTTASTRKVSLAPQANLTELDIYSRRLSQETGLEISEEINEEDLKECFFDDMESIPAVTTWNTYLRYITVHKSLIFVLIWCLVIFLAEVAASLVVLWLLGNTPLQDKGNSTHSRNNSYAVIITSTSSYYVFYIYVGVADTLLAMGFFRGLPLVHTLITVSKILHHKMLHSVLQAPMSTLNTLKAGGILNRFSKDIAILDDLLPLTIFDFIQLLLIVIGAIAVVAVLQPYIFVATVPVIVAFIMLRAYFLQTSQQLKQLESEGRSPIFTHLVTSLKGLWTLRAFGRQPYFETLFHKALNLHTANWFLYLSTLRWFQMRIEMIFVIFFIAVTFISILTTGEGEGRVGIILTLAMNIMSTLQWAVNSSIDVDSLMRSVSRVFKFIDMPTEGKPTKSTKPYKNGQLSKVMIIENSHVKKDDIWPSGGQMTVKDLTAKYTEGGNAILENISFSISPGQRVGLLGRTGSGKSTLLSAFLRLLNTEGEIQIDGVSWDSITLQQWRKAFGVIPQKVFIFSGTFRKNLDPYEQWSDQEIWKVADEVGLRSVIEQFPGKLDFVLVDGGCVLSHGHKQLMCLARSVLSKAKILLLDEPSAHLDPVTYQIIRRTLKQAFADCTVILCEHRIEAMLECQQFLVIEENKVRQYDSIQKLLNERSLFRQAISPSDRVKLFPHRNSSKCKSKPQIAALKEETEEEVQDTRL

Experiments:
[1] = total CFTR protein upregulators, primary screen, cell-based, HeLa F508del-CFTR, immunofluorescence, viability (AID 1224863); conditions: 24 h, measured here: primary viability 10 ug/mL, library dosed in µg/mL, stronger effect = higher value;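 on fold increase: total CFTR protein by anti-CFTR immunofluorescence in fixed cells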
[2] = target: Cystic fibrosis transmembrane conductance regulator (Homo sapiens) (UniProt P13569); assay: as above; conditions: 24 h, measured here: primary screen 10 ug/mL, library dosed in µg/mL, stronger effect = higher value

Row | SMILES | viability [1] [%] | fold increase [2]
1 | CC(C)(C)n1nc(C(=O)NCC2(N3CCOCC3)CCCCC2)cc1C1CC1 | 94 | 0.94
2 | Cc1cc(C(=O)NCC2(N3CCOCC3)CCCCC2)c(C)o1 | 98 | 1
